Data from PubChem BioAssay AID504444 (National Center for Advancing Translational Sciences (NCATS), 2011).
Values joined by “and” are separate entries in the source; they are usually repeats but may differ in a detail not shown here. Equal values may be shown once. Among all 360,000 compounds or so, about 7,500 (2.1%) were called active. The inconclusive results got no clear call from the source; some entries with a clear call stand among them for comparison. Calls come from the whole dose curve; as a rule, active = well fitted inhibition curve with a large enough effect; inconclusive = small, poorly fitted or top-dose-only effect, or effect the other way; inactive = flat fitted curve, though single readings scatter. Where the call is inconclusive, the potency comes from a doubtful curve fit.

Assay: Nrf2 qHTS screen for inhibitors; note: nearly all actives have a fitted effect of over 60% in size
Settings: A549 ARE-Fluc reporter, luciferase luminescence, 18-24 h; series mostly up to 46 µM
In short: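 Quantitative HTS in A549 cells stably bearing an antioxidant response element-firefly luciferase construct. Inhibition of Nrf2-driven transcription was scored by luminescence after 18-24 h of compound exposure at 37 °C.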
Potency is the fitted concentration of half-maximal effect.

For O=C(COc1ccc(Cl)cc1)N1CCN(C/C=C/c2ccccc2)CC1, which Potency is on record?
The Potency was inconclusive: 20.6 µM [falling, single point].

For OCC1CN1C1CCCCC1 (stereo not drawn), which Potency is on record?
The Potency was “inactive”.

Which Potency does the source give for c1ccc2c(N3CCNCC3)nsc2c1 here?
The Potency was inconclusive: 11.6 µM [falling, partial curve].

Which Potency does the source give for Cc1ncc2n1-c1ccc(Cl)cc1C(c1ccccc1F)=NC2 here?
Its Potency is inconclusive: 25.9 µM [falling, partial curve, poor fit].

With O=c1[nH]c(=O)n(C2CCCCC2)c(O)c1/C=N/N1CCCCC1c1cccnc1 (stereo not drawn) as the compound, how does the Potency read?
The Potency was “inactive”.

Which Potency does the source give for Cc1ccc(C(=O)Nc2nc3ccccc3[nH]2)cc1 here?
The Potency was inconclusive: 29.1 µM [falling, single point].

With Cc1ccc(-n2c(C)nc3cc(Cl)ccc3c2=O)nc1 as the compound, how does the Potency read?
Its Potency is inconclusive: 10.3 µM [activator, partial curve, poor fit].

With C[n+]1c2cc(N)ccc2cc2ccc(N)cc21 as the compound, how does the Potency read?
The Potency was active: 3.66 µM and active: 1.46 µM.

For CCOc1ccc(CN(CCc2ccc3c(c2)OCO3)Cc2cc(OC)ccc2O)cc1, which Potency is on record?
Its Potency is “inactive”.

With CC(C)c1ccc(-n2c(O)c(C=NCCN3CCNCC3)c(=O)[nH]c2=S)cc1 as the compound, how does the Potency read?
The Potency was inconclusive: 29.1 µM [activator, single point].

With CCCCCOc1ccc(C)cc1CN(CCCl)CCCl as the compound, how does the Potency read?
Its Potency is inconclusive: 23.1 µM [falling, single point].

With Cc1oc2ccc(OC(=O)N(C)C)cc2c1C(=O)OC(C)C as the compound, how does the Potency read?
The Potency was inconclusive: 29.1 µM [falling, single point].

With COc1cc2c(cc1OC)C(C(=O)N(C)C1CCCCC1)C1CCCCN1C2=O (stereo not drawn) as the compound, how does the Potency read?
The Potency was “inactive”.

Which Potency does the source give for CCCCCn1c(=O)c(C(=O)Nc2cnccn2)c(O)c2ccccc21 here?
Its Potency is active: 4.61 µM.

With C=CCn1c(O)c(C(C)=NCCCO)c(=O)[nH]c1=O as the compound, how does the Potency read?
Its Potency is “inactive”.

For CCCCn1c(O)c(C(CC)=Nc2ccc(OCC)cc2)c(=O)[nH]c1=O, which Potency is on record?
Its Potency is active: 13 µM.

For CCc1ccc(CNCCc2ccccc2F)cc1, which Potency is on record?
Its Potency is inconclusive: 3.26 µM [activator, partial curve, poor fit].

For CCc1ccc(-n2nc(C)c3c(C(=O)NCCc4ccc(OC)c(OC)c4)cc(C)nc32)cc1, which Potency is on record?
Its Potency is active: 23.1 µM.

Which Potency does the source give for COC(=O)c1nc(-c2ccc3c(n2)C(=O)C(N)=C(OC)C3=O)c(N)c(-c2ccc(OC)c(OC)c2O)c1C here?
Its Potency is “inactive”.

With CCOC1=C(N2CC2)C(=O)C(OCC)=C(N2CC2)C1=O as the compound, how does the Potency read?
Its Potency is inconclusive: 3.66 µM [falling, full curve].

With CCOc1cccc(=NC2CCCCC2)c2c(C)[nH]c(C)c12 as the compound, how does the Potency read?
Its Potency is inconclusive: 29.1 µM [falling, single point].

With Cc1nc2ccc(Nc3nc4cc(S(=O)(=O)N5CCOCC5)ccc4o3)cc2s1 as the compound, how does the Potency read?
Its Potency is inconclusive: 16.4 µM [falling, single point].

With CCCCC(=O)N/N=C/c1c(O)n(CC)c(=S)n(CC)c1=O as the compound, how does the Potency read?
The Potency was inconclusive: 9.2 µM [falling, partial curve].

With CCn1nc(/C=C/c2ccccc2)nc2c(=O)n(C)c(=O)nc1-2 as the compound, how does the Potency read?
The Potency was inconclusive: 2.59 µM [activator, single point].

Which Potency does the source give for CC1=C(C(=O)Nc2ccccc2)SCCO1 here?
Its Potency is inconclusive: 29.1 µM [activator, single point].

With Cc1ccc(N2C(=O)NC(=O)C3(Cc4ccccc4N4CCCC43)C2=O)cc1 (stereo not drawn) as the compound, how does the Potency read?
Its Potency is inconclusive: 32.6 µM [activator, partial curve, poor fit].

With CCCCn1c(=O)c(C(=O)Nc2ccccc2F)c(O)c2ccccc21 as the compound, how does the Potency read?
The Potency was “inactive”.

With CCn1c(C)c(C(=O)NCCc2ccccc2)c2cc(OC)ccc21 as the compound, how does the Potency read?
The Potency was “inactive”.

With CC1CN(c2ccc([N+](=O)[O-])c3cccnc23)CC(C)N1 (stereo not drawn) as the compound, how does the Potency read?
The Potency was “inactive”.

With COc1cccc(N2C(=O)/C(=C/c3ccc(C)o3)C(=O)NC2=S)c1 as the compound, how does the Potency read?
The Potency was “inactive”.

With Nc1nonc1-n1nnc(C(=O)N/N=C/c2ccc3c(c2)OCO3)c1CSc1ccccc1 as the compound, how does the Potency read?
Its Potency is inconclusive: 32.6 µM [falling, partial curve, poor fit].

For O=C(CCC(=O)N1C[C@H]2C[C@@H](C1)c1cccc(=O)n1C2)NCc1ccc(F)cc1, which Potency is on record?
The Potency was inconclusive: 29.1 µM [activator, partial curve, poor fit].

For c1ccc(Nc2ccc3ccccc3c2)cc1, which Potency is on record?
The Potency was inconclusive: 20.6 µM [activator, single point].

Which Potency does the source give for CCCCCNc1c(C(=O)OCC)c(=O)[nH]c2ccccc12 here?
The Potency was inconclusive: 0.206 µM [falling, full curve, poor fit].

For CC(=O)NC(Cc1ccc(N(CCCl)CCCl)cc1)C(=O)O (stereo not drawn), which Potency is on record?
The Potency was “inactive”.

With O=P(Nc1ccccc1)(Nc1ccccc1)Oc1ccc(Cl)cc1 as the compound, how does the Potency read?
Its Potency is inconclusive: 20.6 µM [falling, single point].

For Cc1[nH]c2ccccc2c1P(=S)(c1ccccc1)c1ccccc1, which Potency is on record?
Its Potency is “inactive”.

Which Potency does the source give for CC(=NCc1cccnc1)c1c(O)n(Cc2ccccc2)c(=O)[nH]c1=O here?
The Potency was inconclusive: 9.2 µM [falling, partial curve, poor fit].

For Cc1cc2c(cc(C(=O)N3CCC(C(=O)NC4CCCC4)CC3)n2Cc2c(F)cccc2Cl)o1, which Potency is on record?
The Potency was active: 16.4 µM.

With CCC(=O)Nc1ccc(C(=O)NNC(=O)c2cc([N+](=O)[O-])cc([N+](=O)[O-])c2)cc1 as the compound, how does the Potency read?
The Potency was inconclusive: 5.8 µM [falling, single point].

Which Potency does the source give for CC[C@@]1(C(=O)OC)N[C@H](CN(C)C(=O)c2ccc(C(C)(C)C)cc2)[C@@H]2C(=O)N(Cc3ccccc3)C(=O)[C@@H]21 here?
The Potency was inconclusive: 29.1 µM [falling, single point].

For Cn1c(O)c(/C=C2\C=Nc3ccccc32)c(=O)n(C)c1=O, which Potency is on record?
The Potency was “inactive”.

Which Potency does the source give for N#Cc1cc2c(nc1SCC(=O)Nc1ccc(C(F)(F)F)cc1)C1CCN2CC1 here?
Its Potency is active: 8.2 µM.

For Cc1ccc(-n2c(O)c(C=NCc3ccco3)c(=O)[nH]c2=S)cc1C, which Potency is on record?
Its Potency is “inactive”.

For COc1ccccc1-n1c(/C=C/c2ccccn2)nc2ccccc2c1=O, which Potency is on record?
Its Potency is inconclusive: 18.4 µM [falling, single point].

For O=C(Nc1ccc(Br)cc1)c1cccc(S(=O)(=O)N2CCc3ccccc32)c1, which Potency is on record?
The Potency was active: 16.4 µM.

With CCOC(=O)c1c(-n2c(C)cc(C=C3C(=O)NC(=S)NC3=O)c2C)sc2c1CCCC2 as the compound, how does the Potency read?
Its Potency is inconclusive: 29.1 µM [falling, single point].

For Cc1cccc(-n2c(O)c(C=Nc3ccccc3N)c(=O)[nH]c2=O)c1, which Potency is on record?
The Potency was inconclusive: 23.1 µM [activator, single point].

With COc1ccc(C2=NOC(COC(=O)c3ccc4ccccc4n3)C2)cc1 (stereo not drawn) as the compound, how does the Potency read?
Its Potency is inconclusive: 29.1 µM [activator, single point].

Which Potency does the source give for Cc1cc(/C=C2\C(=O)NC(=O)N(c3cccc(Br)c3)C2=O)c(C)n1C here?
Its Potency is “inactive”.

With CCCC(C)n1[nH]c(=O)c2c1NC(=O)CSC2c1ccc(OC)cc1 (stereo not drawn) as the compound, how does the Potency read?
Its Potency is inconclusive: 29.1 µM [activator, single point].

For O=C(CC1CCCCC1)N1CCC(c2nc(-c3ccc(S(=O)(=O)N4CCCC4)cc3)no2)CC1, which Potency is on record?
Its Potency is active: 20.6 µM.

With COc1cc(/C=C/c2nc3ccccc3c(=O)n2-c2cccc(O)c2)ccc1O as the compound, how does the Potency read?
Its Potency is inconclusive: 29.1 µM [falling, single point].

For O=P1(Oc2ccccc2)CC=CC(COC(c2ccccc2)(c2ccccc2)c2ccccc2)O1 (stereo not drawn), which Potency is on record?
The Potency was inconclusive: 29.1 µM [falling, single point].

Which Potency does the source give for Brc1ccccc1Cn1c(-c2cncs2)nc2ccccc21 here?
Its Potency is inconclusive: 9.2 µM [activator, single point].

Which Potency does the source give for O=C1CCCC2C3CCCN4CCCC(CN12)C34 (stereo not drawn) here?
The Potency was “inactive”.

For CCN(CC)c1ccc(CNCCc2ccc(F)cc2)cc1, which Potency is on record?
The Potency was inconclusive: 20.6 µM [activator, partial curve].

Which Potency does the source give for Cc1cccc(CN2CCN(Cc3ccc(Cl)cc3)CC2)c1 here?
The Potency was inconclusive: 18.4 µM [falling, partial curve, poor fit].

For Clc1ccc(Cn2ccnc2)cn1, which Potency is on record?
The Potency was inconclusive: 8.2 µM [falling, partial curve, poor fit].

With N#CCCn1cc(C(=O)Nc2ccccc2Cl)c(-c2ccc(F)cc2)n1 as the compound, how does the Potency read?
The Potency was inconclusive: 25.9 µM [falling, partial curve, poor fit].

Which Potency does the source give for CCNC(=O)O/N=C(\C)c1sc(-c2ccc(Cl)cc2)nc1C here?
Its Potency is inconclusive: 1.16 µM [activator, full curve, poor fit].

For CCN[C@@H](C)Cc1cccc(C(F)(F)F)c1, which Potency is on record?
Its Potency is “inactive”.

Which Potency does the source give for COC(=O)C1=C(c2ccc(F)cc2OCc2ccccc2)C[C@@H]2CC[C@H]1N2C(=O)NC1CCN(Cc2ccccc2)CC1 here?
The Potency was “inactive”.

For c1csc(CN2CCNCC2)c1, which Potency is on record?
Its Potency is inconclusive: 0.0231 µM [falling, full curve, poor fit].

For O=C(/C=C/c1ccccc1)c1c(O)n(CCc2ccccc2)c(=O)[nH]c1=O, which Potency is on record?
The Potency was “inactive”.

For Cc1cccn2c(NCC3CCCO3)c(C(C)C)nc12 (stereo not drawn), which Potency is on record?
Its Potency is “inactive”.

Which Potency does the source give for O=C1NC(=S)SC1=Cc1ccc(N(CCCl)CCCl)cc1 here?
The Potency was inconclusive: 29.1 µM [falling, single point].

With COc1ccc(NC(c2ccccc2)P(=O)(Oc2ccccc2)Oc2ccccc2)cc1 (stereo not drawn) as the compound, how does the Potency read?
Its Potency is “inactive”.

For Cc1ccc(N2Cc3ccccc3C2=N)cc1[N+](=O)[O-], which Potency is on record?
Its Potency is “inactive”.

With CC(=NCc1ccc2c(c1)OCO2)c1c(O)n(Cc2ccccc2)c(=O)[nH]c1=O as the compound, how does the Potency read?
The Potency was inconclusive: 20.6 µM [falling, partial curve, poor fit].

Which Potency does the source give for CC(=O)N1c2ccc(S(=O)(=O)NCC3CCC(C(=O)Nc4cc(C)cc(C)c4)CC3)cc2CC1C (stereo not drawn) here?
The Potency was active: 20.6 µM.

For Cc1ccc(S(=O)(=O)N2CCCC(C(=O)N3CCC4(CC3)OCCO4)C2)cc1 (stereo not drawn), which Potency is on record?
The Potency was “inactive”.

Which Potency does the source give for C=CCn1c(O)c(N=Nc2c(C)n(C)n(-c3ccccc3)c2=O)c(=O)[nH]c1=S here?
The Potency was inconclusive: 18.4 µM [falling, partial curve].
